doi:10.1101/2023.02.01.526551
These are yes or no findings as the source states them, for the method shown. Binding seen in cells or lysates may run through a third protein. Some binding calls cover weakened binding; strength is not graded here.

The chains behind the UniProt entries cited, without tags or fusion partners. Where a name states a change or a piece, a line headed by the entry shows the natural chain unless it says otherwise. Residues count along the entry.
UniProt Q9BXW4, 1-126: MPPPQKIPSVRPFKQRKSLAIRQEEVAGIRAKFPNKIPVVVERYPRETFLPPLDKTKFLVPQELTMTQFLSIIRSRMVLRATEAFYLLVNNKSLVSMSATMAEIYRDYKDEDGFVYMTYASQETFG

Legend:
Experiment in all cases: co-IP
[1] = molecular target: BAG3 Y247S single LIR mutant (human) (UniProt O95817)
[2] = molecular target: wild-type human BAG3 (Bcl-2 associated athanogene 3) (human) (UniProt O95817)
[3] = molecular target: BAG3 Y86S single LIR mutant (human) (UniProt O95817)
[4] = molecular target: BAG3 Y93S single LIR mutant (human) (UniProt O95817)
[5] = molecular target: BAG3 I454T single LIR mutant (human) (UniProt O95817)
[6] = molecular target: BAG3 Y205S single LIR mutant (human) (UniProt O95817)

Measured: binding

LC3A (microtubule-associated proteins 1A/1B light chain 3A) (from UniProt Q9H492 1-121)
binds: [1] | [2] | [3] | [4] | [5]

LC3C (microtubule-associated proteins 1A/1B light chain 3C) (from UniProt Q9BXW4 1-126)
binds: [1] | [2] | [6] | [3] | [4] | [5]
